Values of other authors as cited in PMC8618442, “Solubility of Cinnarizine in (Transcutol + Water) Mixtures: Determination, Hansen Solubility Parameters, Correlation, and Thermodynamics” (Molecules, 2021).

Conditions: cited from earlier work

## C(=C\c1ccccc1)/CN1CCN(C(c2ccccc2)c2ccccc2)CC1 [CNZ, 1-benzhydryl-4-[(E)-3-phenylprop-2-enyl]piperazine]
  partition coefficient (log P): 5.8
